# Reference: PMC7819943, “Rice protein-binding microarrays: a tool to detect cis-acting elements near promoter regions in rice”
# This is one part of the list.
# Molecular target: T1, OsSMF1 (Oryza sativa, UniProt Q6ZLB0 1-436)
# T1 sequence: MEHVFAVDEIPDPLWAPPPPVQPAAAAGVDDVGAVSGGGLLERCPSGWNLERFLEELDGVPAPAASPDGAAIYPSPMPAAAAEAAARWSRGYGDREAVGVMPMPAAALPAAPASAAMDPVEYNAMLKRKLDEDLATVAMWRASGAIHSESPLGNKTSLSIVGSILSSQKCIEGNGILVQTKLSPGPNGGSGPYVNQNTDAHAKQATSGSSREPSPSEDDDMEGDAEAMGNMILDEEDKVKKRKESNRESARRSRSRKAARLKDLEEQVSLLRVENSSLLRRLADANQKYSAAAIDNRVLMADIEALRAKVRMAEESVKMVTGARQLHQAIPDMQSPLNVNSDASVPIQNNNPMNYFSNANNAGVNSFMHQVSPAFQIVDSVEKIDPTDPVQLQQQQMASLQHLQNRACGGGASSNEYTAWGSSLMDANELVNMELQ
# Test: protein-binding microarray (RPBM); PBS, 2% BSA, 51.3 ng/ul salmon testes DNA, 50 uM zinc acetate, 200 nM TF, 25 C, 1 h; high values mean tight binding
# Settings: protein: recombinant; tags: N-terminal polyhistidine and DsRed monomer fusion (pET32a); chain copies: 2; label: CyDye5-dUTP incorporated in the synthesized complementary strand; 3' TTTTT single-stranded linker to array surface; dsDNA, one strand shown
# Method in brief: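 Binding signal here means per-feature fluorescence intensity in arbitrary units. The values were read on an Axon 4000B scanner after a custom Agilent array, double-stranded by primer extension with Cy5-dUTP, was incubated with 200 nM protein at 25 °C for 1 h in PBS with 2% BSA, salmon testes DNA and 50 µM zinc acetate, then washed. The proteins were transcription factors with an N-terminal polyhistidine tag and DsRed, expressed in E. coli BL21-CodonPlus and purified on Ni–NTA.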
row,Sequence,binding signal
1,AAACCCGCCTACCGGGTATGACGTTATTTAAGTACCTGAGCGGAGTCACCTAGTGCAG,3540 fluorescence intensity (a.u.)
2,CCCCTTCCACCACCTCCGCCGACACGAACGTCAGCACCGCCGGAGTCACCTAGTGCAG,8380 fluorescence intensity (a.u.)
3,TCACTGTATAACAGCTCACCGCTCGTCACTGACAACGGCACGGAGTCACCTAGTGCAG,3390 fluorescence intensity (a.u.)
4,GAAACAAACACATCAGATGACGTTTGTTGAAATGCCTAACCGGAGTCACCTAGTGCAG,5000 fluorescence intensity (a.u.)
5,ACGGAGGGAGTATTTGGACTTATTACACATACCGGTTTTGCGGAGTCACCTAGTGCAG,3500 fluorescence intensity (a.u.)
6,ATGGATAACGAAGACGTTATAGAAGGTGATGACTAGCCGTCGGAGTCACCTAGTGCAG,3700 fluorescence intensity (a.u.)
7,TCCTAATTTCCTCAACCTACAGGGTCACATGCAACAGACACGGAGTCACCTAGTGCAG,3260 fluorescence intensity (a.u.)
8,CTCCAAGTCCAACCTGACGTGGGACCCACCTGTCATCGACCGGAGTCACCTAGTGCAG,4740 fluorescence intensity (a.u.)
9,GGGTCCAGGATATGATAAGAATGATTTGGCACTCCATTGGCGGAGTCACCTAGTGCAG,3990 fluorescence intensity (a.u.)
10,CTATTAGGTATGTGGTATCTATAACCCTGACAGTAGCCCCCGGAGTCACCTAGTGCAG,3300 fluorescence intensity (a.u.)
11,GAGAGAAGAGGGGAAAAGAGAGAGGAGTTTGATGACGTGGCGGAGTCACCTAGTGCAG,39300 fluorescence intensity (a.u.)
12,ATGCCAGCACGGCCTTGCTACTCGTCATCACATGGCCGCCCGGAGTCACCTAGTGCAG,4260 fluorescence intensity (a.u.)
13,GTGTAAAAGTTTTGACGTGTCACATCGGATATACGGACACCGGAGTCACCTAGTGCAG,15300 fluorescence intensity (a.u.)
14,CGCCGCGAGCTAAAACCGATGGTGACTTGGTGAGCCAGCCCGGAGTCACCTAGTGCAG,3930 fluorescence intensity (a.u.)
15,GGCCCTAACCCCACCGACCACCCGCGGCCCTCGTCTTCCTCGGAGTCACCTAGTGCAG,4210 fluorescence intensity (a.u.)
16,TCCTTCTATATGTTTGCACTTACGTGGGCCGTATTTATGCCGGAGTCACCTAGTGCAG,9040 fluorescence intensity (a.u.)
17,GAGGGCTGAGCTCGTTGGGTACTTGGCCGTGCCGACGACGCGGAGTCACCTAGTGCAG,3400 fluorescence intensity (a.u.)
18,CCTCGTCCCCGCCGCCGCCGCCGCCGTTAGATTGAAGCAGCGGAGTCACCTAGTGCAG,33500 fluorescence intensity (a.u.)
19,TGTCTCAATCCACACGAAAGCTATCCAGTTCGTCATCAAGCGGAGTCACCTAGTGCAG,3760 fluorescence intensity (a.u.)
20,ACACATGCTGTTAAGAAGTATGGCTTTATACATTCTATGTCGGAGTCACCTAGTGCAG,31500 fluorescence intensity (a.u.)
21,CCGCCACGTGGTGTATCCAATATGTTTGGTAATTGGCTACCGGAGTCACCTAGTGCAG,21600 fluorescence intensity (a.u.)

# An excerpt of these results, as tab-separated lines:
row	Sequence	binding signal
5	ACGGAGGGAGTATTTGGACTTATTACACATACCGGTTTTGCGGAGTCACCTAGTGCAG	3500 fluorescence intensity (a.u.)
11	GAGAGAAGAGGGGAAAAGAGAGAGGAGTTTGATGACGTGGCGGAGTCACCTAGTGCAG	39300 fluorescence intensity (a.u.)

# Carrying on:

row,Sequence,binding signal
1,AGTACTCTATACATGTGTCCAAATATTCGATGTGACATGGCGGAGTCACCTAGTGCAG,3470 fluorescence intensity (a.u.)
2,CTCTTAGTATCGCTGATACGTGGGCCACCAGCCAATCATACGGAGTCACCTAGTGCAG,4080 fluorescence intensity (a.u.)
3,CGAGGCCCACGACGTGCCAGCTCAATCTCAAAGCCCAGAACGGAGTCACCTAGTGCAG,3400 fluorescence intensity (a.u.)
4,ACATTGTTCAGTCCACGTTTGCTTCGGTTCGCTTTTCCGTCGGAGTCACCTAGTGCAG,6370 fluorescence intensity (a.u.)
5,TATCCAAAATTTCATCCAACTCTTGTGGGAGAAACGGACACGGAGTCACCTAGTGCAG,39500 fluorescence intensity (a.u.)
6,ACTTTGTCCACGCCATCCTCCAAGTCTCCAAACCTACACACGGAGTCACCTAGTGCAG,3810 fluorescence intensity (a.u.)
7,ATGATCCCGTTTACCACTCTTGAGCTGTCAATTATTTGGGCGGAGTCACCTAGTGCAG,6000 fluorescence intensity (a.u.)
8,AGAGAGGGTTTGGAGGCCTCAGAAAGCAGAGGTTCATCTCCGGAGTCACCTAGTGCAG,3300 fluorescence intensity (a.u.)
9,TGCAAATCTCAATGTGAGTCACATGTGGTGTCATCAGTCACGGAGTCACCTAGTGCAG,5890 fluorescence intensity (a.u.)
10,CTAGGTATATAGCATCCATACATATAATTAGTTAGGTATGCGGAGTCACCTAGTGCAG,3300 fluorescence intensity (a.u.)
11,TTGGTGAAATGGTGACTTGTGGACTGATGGAGTGGGAGCTCGGAGTCACCTAGTGCAG,4500 fluorescence intensity (a.u.)
12,ATATCTCTCCCACCCACCCACTCTTCCTCCACTCCGGCGACGGAGTCACCTAGTGCAG,3340 fluorescence intensity (a.u.)
13,ATGCCTGCTACGTACGTGTGCGTAGAAGATGTTGCTGTTGCGGAGTCACCTAGTGCAG,5090 fluorescence intensity (a.u.)
14,ACTAATTGATCATCGTGATCGTCATCATCTTCATTTGTCTCGGAGTCACCTAGTGCAG,3440 fluorescence intensity (a.u.)
15,TTTAGCATGGGACATCTGACAGGTCAGGTCCATCTGTCATCGGAGTCACCTAGTGCAG,4010 fluorescence intensity (a.u.)
16,ATTTTGGGCCAAATTCCCTTCAATTAACCCAATCAGCACACGGAGTCACCTAGTGCAG,3250 fluorescence intensity (a.u.)
17,GAAAATTACGCGATATGGGTGATGGCGCCCTGTTCCTTATCGGAGTCACCTAGTGCAG,3730 fluorescence intensity (a.u.)
18,GTCTCGGTGGATAACGGACGGTGACGTGATCTACGGTGAGCGGAGTCACCTAGTGCAG,3240 fluorescence intensity (a.u.)
19,CGGCTAGAAGCGCCGATAGCTGCCGTCCTCCGTCACTTCCCGGAGTCACCTAGTGCAG,4550 fluorescence intensity (a.u.)
20,CCTTGCGCTCAATGCCAGGCGGCCCAGTTAAACTACACGCCGGAGTCACCTAGTGCAG,3150 fluorescence intensity (a.u.)
21,TACCTGATGAGTGATAAGACTCAACTGACGTGCTGTGCTGCGGAGTCACCTAGTGCAG,5360 fluorescence intensity (a.u.)
